These results are taken from article PMC4865133.

The target of one assay is T1, SWI3D-Flag (Arabidopsis) (UniProt Q8VY05).
T1 sequence: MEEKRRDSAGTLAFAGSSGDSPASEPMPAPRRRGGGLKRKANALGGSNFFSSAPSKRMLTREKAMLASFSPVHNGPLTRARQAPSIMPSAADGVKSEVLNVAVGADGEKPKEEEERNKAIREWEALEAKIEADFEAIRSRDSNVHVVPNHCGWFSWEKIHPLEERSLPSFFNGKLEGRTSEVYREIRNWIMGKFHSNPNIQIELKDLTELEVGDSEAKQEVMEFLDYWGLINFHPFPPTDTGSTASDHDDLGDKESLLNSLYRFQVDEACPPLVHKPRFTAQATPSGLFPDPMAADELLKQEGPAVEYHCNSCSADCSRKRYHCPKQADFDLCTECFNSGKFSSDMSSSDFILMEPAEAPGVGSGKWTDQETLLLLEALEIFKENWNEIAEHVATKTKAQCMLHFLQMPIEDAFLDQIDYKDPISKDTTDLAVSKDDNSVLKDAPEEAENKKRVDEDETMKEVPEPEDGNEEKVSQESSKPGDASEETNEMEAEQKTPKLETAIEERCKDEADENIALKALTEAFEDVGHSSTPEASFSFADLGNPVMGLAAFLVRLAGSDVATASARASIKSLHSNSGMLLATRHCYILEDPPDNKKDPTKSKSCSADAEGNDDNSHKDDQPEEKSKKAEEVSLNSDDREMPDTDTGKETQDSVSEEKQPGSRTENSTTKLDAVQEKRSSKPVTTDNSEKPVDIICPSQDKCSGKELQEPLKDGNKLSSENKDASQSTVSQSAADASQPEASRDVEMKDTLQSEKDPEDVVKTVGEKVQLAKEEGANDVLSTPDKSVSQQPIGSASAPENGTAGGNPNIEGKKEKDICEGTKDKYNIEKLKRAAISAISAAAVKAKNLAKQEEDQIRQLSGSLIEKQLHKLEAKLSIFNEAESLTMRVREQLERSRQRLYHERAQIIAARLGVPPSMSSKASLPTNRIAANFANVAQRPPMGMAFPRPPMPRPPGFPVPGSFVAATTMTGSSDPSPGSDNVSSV
The assay can be described thus: co-IP; lysate of 2-week-old seedlings of F1 hybrids of transgenic Arabidopsis; Anti-Flag M2 Affinity Gel, 4°C, 2.5 h; eluted with 3xFlag peptide; western blot.

The target of the next assay is T2, MORC6-Flag (Arabidopsis) (UniProt Q56Y74).
T2 sequence: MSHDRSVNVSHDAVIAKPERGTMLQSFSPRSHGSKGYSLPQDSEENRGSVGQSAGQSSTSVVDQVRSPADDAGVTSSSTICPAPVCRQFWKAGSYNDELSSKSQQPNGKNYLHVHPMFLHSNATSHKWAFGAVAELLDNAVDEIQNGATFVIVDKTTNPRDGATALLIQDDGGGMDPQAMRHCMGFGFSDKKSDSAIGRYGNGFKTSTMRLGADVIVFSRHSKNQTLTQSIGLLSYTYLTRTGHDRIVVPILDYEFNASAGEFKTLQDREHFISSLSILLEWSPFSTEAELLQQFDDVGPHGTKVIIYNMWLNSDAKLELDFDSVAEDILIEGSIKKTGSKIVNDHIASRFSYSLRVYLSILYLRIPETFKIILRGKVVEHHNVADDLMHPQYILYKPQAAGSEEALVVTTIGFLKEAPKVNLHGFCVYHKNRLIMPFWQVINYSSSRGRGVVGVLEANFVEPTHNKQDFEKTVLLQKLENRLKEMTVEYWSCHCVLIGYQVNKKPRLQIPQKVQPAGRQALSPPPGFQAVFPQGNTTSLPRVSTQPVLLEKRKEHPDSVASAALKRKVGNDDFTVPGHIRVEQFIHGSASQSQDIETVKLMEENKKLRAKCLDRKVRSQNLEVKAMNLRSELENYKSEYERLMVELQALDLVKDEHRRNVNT
The assay is described as above.

Results are given in words; binding and its absence hold for the method and conditions named. Binding seen in cells or lysates may run through a third protein. Some entries that bind do so weakly or less than the wild type. Sequences can lack the tags named with a protein.

B1: MORC6-Myc (protein, UniProt Q56Y74 1-663)
chain: T2 sequence
As for B1, the binding result with SWI3D-Flag (Arabidopsis) is reported as “binds”.

B2: IDN2-Myc (protein, UniProt Q8VZ79 1-647)
chain: MGSTVILSSDDEDSDISESEMDEYGDKMYLNLKGGKLKVRLSPQAFICPYCPNKKKTSFQYKDLLQHASGVGNSNSDKRSAKEKASHLALVKYLQQDLADSASEAEPSSKRQKNGNPIQDCDHDEKLVYPWKGIVVNIPTTKAQDGRSAGESGSKLRDEYILRGFNPTRVRPLWNYLGHSGTAIVEFNKDWNGLHNGLLFDKAYTVDGHGKKDWLKKDGPKLGLYGWIARADDYNGNNIIGENLRKTGDLKTIAELTEEEARKQELLVQNLRQLVEEKKKDMKEIEELCSVKSEELNQLMEEKEKNQQKHYRELNAIQERTMSHIQKIVDDHEKLKRLLESERKKLEIKCNELAKREVHNGTERMKLSEDLEQNASKNSSLELAAMEQQKADEEVKKLAEDQRRQKEELHEKIIRLERQRDQKQAIELEVEQLKGQLNVMKHMASDGDAEVVKEVDIIFKDLGEKEAQLADLDKFNQTLILRERRTNDELQEAHKELVNIMKEWNTNIGVKRMGELVTKPFVDAMQQKYCQQDVEDRAVEVLQLWEHYLKDSDWHPFKRVKLENEDREVEVIDDRDEKLRELKADLGDGPYNAVTKALLEINEYNPSGRYITTELWNFKADKKATLEEGVTCLLDQWEKAKRKRGMA
Consider B2, for which the binding result with MORC6-Flag (Arabidopsis) is “binds”.
